# Assay results as given in PubChem BioAssay AID1439 (NMMLSC, 2008).
# Chains of the proteins cited; added tags and fusions are not shown.
# UniProt P09471, whole entry, looked up: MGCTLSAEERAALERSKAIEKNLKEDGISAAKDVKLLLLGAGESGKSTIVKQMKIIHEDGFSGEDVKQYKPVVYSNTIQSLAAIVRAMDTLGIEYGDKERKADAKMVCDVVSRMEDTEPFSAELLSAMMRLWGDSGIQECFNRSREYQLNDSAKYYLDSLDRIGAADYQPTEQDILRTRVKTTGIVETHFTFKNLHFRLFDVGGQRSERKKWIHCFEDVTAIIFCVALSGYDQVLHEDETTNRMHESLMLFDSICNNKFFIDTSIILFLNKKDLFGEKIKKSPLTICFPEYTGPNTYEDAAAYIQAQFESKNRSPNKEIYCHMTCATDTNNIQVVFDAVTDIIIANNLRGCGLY
# About 770 (0.35%) of roughly 220,000 compounds were called active. This list was built around the results that the source calls inconclusive (neither active nor inactive); the mix of calls is not that of the screen. Rule as the data show it: active = binding response below about 49% or above about 150%; inconclusive = no clear call, values can overlap the other calls; inactive = in between.
# Molecular target: Guanine nucleotide-binding protein G(o) subunit alpha (Homo sapiens) (UniProt P09471)
# Experiment: RGS7-Galphao binding modulators, primary screen, biochemical, multiplexed bead flow cytometry (AID 1439);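 also: fluorescent Galphao held in activated GDP-AlF4 state binding bead-coupled RGS7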
# Conditions: at 10 µM, actives lie on both sides
row,SMILES,binding response (% of control)
1,C=CCSc1nnc(NC(=O)c2ccc(NC(C)=O)cc2)s1,inconclusive: 113%
2,Cn1cnc([N+](=O)[O-])c1N=C(N)N,inconclusive: 68.7%
3,CCC(=O)N(CCC(c1ccco1)C(C)C)Cc1ccccc1 (configuration not stated),inconclusive: -341%
4,O=C(CN1CCN(C(c2ccccc2)c2ccccc2)CC1)N1CCN(c2ccccc2)CC1,inconclusive: 89.7%
5,CC(C)C(=O)Nc1nnc(COc2ccc(Cl)cc2)s1,inconclusive: 153%
6,Cc1ccsc1/C=N/n1c(-c2ccco2)n[nH]c1=S,inactive: 99.8%
7,CCCC(=O)Nc1ccc(-c2nc3cc(C)ccc3o2)cc1,inactive: 101%
8,COc1cc(-c2ccc(Nc3ccccc3C(=O)O)c(OC)c2)ccc1Nc1ccccc1C(=O)O,inconclusive: 83%
9,NNC(=O)c1ccc(COc2ccc([N+](=O)[O-])cc2)o1,inconclusive: 120%
10,NC(=O)c1ccc(C(F)(F)F)n(Cc2ccc(F)c(F)c2)c1=O,inconclusive: 112%
11,COC(=O)C/C=N/N=C1/NC(=O)/C(=C/C(=O)O)S1,inconclusive: 60.2%
12,CCCc1cc(NCCCn2ccnc2)n2nc(C)c(-c3ccccc3)c2n1,inconclusive: 137%
13,COC(=O)C1(c2ccccc2)NC(c2ccc(O)cc2)C2C(=O)N(c3ccc4c(c3)OCO4)C(=O)C21 (configuration not stated),inconclusive: 76.5%
14,CC(C)NC(=O)/C(C#N)=C/c1ccc(N(C)C)o1,inconclusive: 94.9%
15,CSc1ccccc1Nc1ncnc(N)n1,inconclusive: 41.5%
16,O=C(COc1ncnc2ccccc12)Nc1cc(S(=O)(=O)N2CCOCC2)ccc1Cl,inconclusive: 115%
17,COc1nc(SCC(=O)Nc2ccccc2Cl)nc(N(C)C)n1,inconclusive: 117%
18,CCCC(=O)OCC(=O)Nc1cc([N+](=O)[O-])ccc1OC,inconclusive: 76.2%
19,COc1ccc(/C=N/Nc2nc3ccccc3[nH]2)c(OC)c1OC,inconclusive: 131%
20,CCOc1ccccc1N=C1SC(CC(=O)Nc2ccc(OC)cc2OC)C(=O)N1CCC1=CCCCC1 (configuration not stated),inactive: 100%
21,O=[N+]([O-])c1cccc(/C=N/NS(=O)(=O)c2ccccc2)c1,inactive: 104%
22,N#Cc1ccccc1OCC(=O)C1CC1,inconclusive: 82.8%
23,CC(=O)Nc1ccc(-c2cc(N)n(-c3ccccc3)n2)cc1,inconclusive: 132%

row,SMILES,binding response (% of control)
1,COc1ccccc1/C=C1\SC(=S)N(CC(=O)Nc2nnc(C)s2)C1=O,inconclusive: 107%
2,S=c1nc(-c2ccccc2)[nH]c2ccccc12,inconclusive: 81.4%
3,O=C(c1ccc(S(=O)(=O)N2CCCC2)cc1)N1CCCCCC1,inconclusive: -442%
4,Cc1ccc(N2C(=O)CC(N3CCSCC3)C2=O)c(C)c1 (configuration not stated),inconclusive: 124%
5,Cn1c(SCc2cccc(Br)c2)nnc1-c1ccccn1,inconclusive: 248%
6,CC(C)c1ccc(NC(=O)NCc2ccc(F)cc2)cc1,inconclusive: 101%
7,COC(=O)C1SCC2C(=O)N(Cc3ccc(F)cc3)CC(=O)N21 (configuration not stated),inconclusive: 103%
8,CCC(=O)Nc1ccc(C(=O)CSc2nnc(-c3ccc(NS(=O)(=O)CC)cc3)o2)cc1OC,inconclusive: 92%
9,Cc1ccc(COc2ccc(C)nc2[N+](=O)[O-])cc1,inconclusive: 70.2%
10,CC1(C)Cc2c(sc3nc4n(-c5ccccc5)c(=O)c(CCC(=O)O)nn4c(=O)c23)CO1,inconclusive: 104%
11,CCOc1ccccc1N1CC(C(=O)Nc2ccc3c(c2)OCCO3)CC1=O (configuration not stated),inconclusive: 97.4%
12,Cc1cccc(C)c1OCC(C)N (configuration not stated),inconclusive: 105%
13,CC(C)(O)C#Cc1ccc(C(=O)NC2CCCCC2)s1,inconclusive: 118%
14,Cn1c(-c2ccc3c(c2)OCO3)cnc1NCc1cccc(O)c1,inactive: 94.3%
15,NS(=O)(=O)c1ccc(CCNC(=S)NC2CCCCC2)cc1,inconclusive: 88.3%
16,O=C(O)CC1SC(N/N=C/c2ccc(Br)cc2)NC1=O (configuration not stated),inconclusive: 98.7%
17,Nc1ccc(C(=O)OCCCc2nc3cc4ccccc4cc3[nH]2)cc1,inconclusive: 104%
18,Cc1cc(OCC(=O)NCc2cccnc2)ccc1[N+](=O)[O-],inconclusive: 135%
19,COc1ccc(CC(=O)Nc2nn(C)c3nc4c(C)cccc4cc23)cc1,inconclusive: 83.8%
20,COc1ccc(-c2c(NC(=O)c3ccco3)n(-c3ccccc3)nc(C)c2=O)cc1,inconclusive: 7.5%
21,Cc1nnc(NC(=O)c2cccc(S(=O)(=O)N3CCc4ccccc43)c2)s1,inactive: 99.7%
22,C/C(CC(=O)Nc1ccc(Cl)cc1Cl)=N\NC(=O)c1cnccn1,inconclusive: 88.6%
23,O=C(CSc1ccc([N+](=O)[O-])cc1)NCC1CCCCC1,inconclusive: 79.9%

row,SMILES,binding response (% of control)
1,NNc1ccc(Cl)nn1,inconclusive: 25.4%
2,Cc1ccc([N+](=O)[O-])c(-c2n[nH]c(=S)n2-c2cccc(Cl)c2)c1,inconclusive: 189%
3,O=C(NC1CCCCCCC1)c1cc(COc2ccc3ncccc3c2)on1,inconclusive: 104%
4,CC(=O)NC(=S)Nc1cccc2ccc(C)nc12,inconclusive: 86.2%
5,COC(=O)/C=C(\Oc1ccccc1)C1(O)CCCCC1,inconclusive: 192%
6,O=c1oc(-c2ccc(Cl)c(Cl)c2)nn1-c1ccc(C(F)(F)F)cn1,inconclusive: 118%
7,O=C(CN1C(=O)NC(Cc2c[nH]c3ccccc23)C1=O)NC1CC1 (configuration not stated),inconclusive: 127%
8,Cc1cccc(CN2C(=O)c3ccccc3Sc3ccc(C(=O)O)cc32)c1,inconclusive: -16%
9,CNc1nc(N)c([N+](=O)[O-])c(Nc2cccc(F)c2)n1,inconclusive: 100%
10,CC(=O)/C(N=Nc1ccc(OC(F)(F)F)cc1)=C(\C)O,inconclusive: 103%
11,COc1ccc(NC(=O)COc2ccc(/C=N/O)cc2OC)cc1,inconclusive: 101%
12,COc1ccc(/C=N/Nc2ccccn2)cc1O,inconclusive: 96.9%
13,N#C/C(=C\c1ccc(OC(F)F)cc1)C(=O)N1CCCCC1,inconclusive: 80.7%
14,CC1=NN(c2cccc(Cl)c2)C(=O)C1,inconclusive: 81%
15,COc1cccc(NC(=O)CN(C)C(C)C(=O)Nc2cc([N+](=O)[O-])ccc2Cl)c1 (configuration not stated),inconclusive: 99.3%
16,Cc1cc(C)c2ccc(/C=N/O)nc2c1O,inconclusive: 89.6%
17,COC(=O)c1ccccc1NC(=S)N(C)C,inconclusive: 62.8%
18,C(=N\N1CCN(Cc2cccc3ccccc23)CC1)/c1cccs1,inconclusive: 61.1%
19,COc1ccc(/C=C(/NC(=O)c2ccccc2)C(=O)NC2CCS(=O)(=O)C2)cc1 (configuration not stated),inactive: 98.4%
20,COc1ccc(NC(=O)c2cn3c(nc4ccccc43)c(C#N)c2C)cc1,inconclusive: 117%
21,O=C(NC1CC1)C1CCN(C2CCN(C(=O)c3ccc4cccc(F)c4n3)CC2)CC1,inactive: 86.6%
22,C=C(C(=O)O)C1CCC2(C)CCCC(C)(O)C2C1 (configuration not stated),inconclusive: 95.2%
23,O=C(CN1CCCCCC1)NN(Cc1ccccc1)c1ccccc1,inconclusive: 116%

row,SMILES,binding response (% of control)
1,O=C(C/C=N\OCc1ccc([N+](=O)[O-])cc1)Nc1ccc(Br)cc1,active: 157% [activator]
2,COc1ccc(Cn2c(=O)[nH]c3cc(C(=O)NCc4ccc5c(c4)OCO5)ccc3c2=O)cc1,inactive: 109%
3,COc1ccc(CCNC(=O)Cn2ccc3c(OC)cccc3c2=O)cc1OC,inconclusive: -349%
4,N#C/C(=C/c1cn[nH]c1-c1cccc(Br)c1)C(=O)O,inconclusive: 86.5%
5,CN(CC(=O)Nc1ccc(N2CCOCC2)cc1)CC(=O)Nc1ccc(N2CCOCC2)cc1,inconclusive: 72.4%
6,Cc1c(Cc2ccccc2)c(NCCN(C)C)n2c(nc3ccccc32)c1C#N,inconclusive: 67.2%
7,CC(C)C1(CCNC(=O)c2cccs2)CCOC(C)(C)C1 (configuration not stated),inconclusive: 146%
8,CC(C)(C)c1ccc(C2=NC(=O)C(CC(=O)O)S2)cc1 (configuration not stated),inconclusive: 138%
9,O=C(CN1C(=O)NC(c2ccccc2)(c2ccccc2)C1=O)Nc1ccc2[nH]c(=O)[nH]c2c1,inconclusive: 61.8%
10,Cc1cc(Cl)ccc1NC(=O)/C=N/O,inconclusive: 98.2%
11,C=C(C)C(=O)Nc1cccc(C2=NOC3(C2)C[C@@H](C(N)=O)N(C(=O)CCCCC)C3)c1 (some centres not stated),inconclusive: 99.1%
12,Cc1ccccc1NCC(=O)N=Nc1c(O)[nH]c2ccc([N+](=O)[O-])cc12,inconclusive: 79.8%
13,CC1CN(c2ccc(Oc3ccccc3)cc2)c2nc3c(c(=O)n(CC(N)=O)c(=O)n3C)n2C1 (configuration not stated),inconclusive: 101%
14,O=C(CSc1ccc(-c2ccccc2)nn1)c1cccs1,inconclusive: 103%
15,Clc1ccc(-c2csc(N/N=C/c3ccco3)n2)cc1,inconclusive: 92.2%
16,O=S(=O)(c1ccc(NC(=S)NCc2ccncc2)cc1)N1CCCCC1,inconclusive: 110%
17,COc1ccccc1OCCSc1nc(C)c(Cc2ccccc2)c(=O)[nH]1,inconclusive: 68.9%
18,Cn1c(=O)[nH]c(=O)c2c1nc(N1CCCCC1)n2C/C=N/Nc1ccc(C(=O)O)cc1,inconclusive: 58.4%
19,COCCCNC(=O)Cn1cc2c(n1)CCCCC2,inactive: 101%
20,CC1=CC(C)C(COC(=O)CN2CCCCC2)C(C)C1 (configuration not stated),inconclusive: 120%
21,Oc1ccc(NC(=S)Nc2ccccc2)cc1,inconclusive: 79.1%
22,CCOC(=O)CNC(=O)c1cc(-c2ccccn2)nc2c(C)c(Cl)ccc12,inconclusive: 90.6%
23,COC(=O)[C@H](CC(C)C)NC(=O)N1CCCCC1C (some centres not stated),inconclusive: 107%
